Experimental data from the supplement of paper PMC9744312.
Counter-ions that a name gives are not always drawn. The list shows a part of the results. The data scatter; read single values as rough.

system: Peyronie's disease tunica albuginea primary fibroblasts; experiment: inhibition of TGF-beta1-induced alpha-SMA expression (myofibroblast transformation), relative to TGF-beta1-only and untreated controls; higher = stronger inhibition of myofibroblast transformation; conditions: 10 µM; TGF-beta1 10 ng/mL; 72 h

Row | SMILES | inhibition of TGF-beta1-induced alpha-SMA expression [%]
1 | N=C(N)NC(=O)Cc1c(Cl)cccc1Cl [Guanfacine Hydrochloride] | 18.9
2 | COc1cc(O)c(C(=O)c2ccccc2)cc1S(=O)(=O)O [Sulisobenzone] | -19.8
3 | Nc1cccc2c1C(=O)N(C1CCC(=O)NC1=O)C2=O (stereo unspecified) [Pomalidomide] | 60.4
4 | Nc1ccn([C@@H]2O[C@H](CO)[C@@H](O)C2(F)F)c(=O)n1 [Gemcitabine] | 5.37
5 | Nc1ccn([C@@H]2O[C@H](CO)[C@@H](O)C2(F)F)c(=O)n1 [Gemcitabine HCl] | -4.16
6 | CC(O)C(=O)O.N (stereo unspecified) [Ammonium lactate] | 10.9
7 | CN(C)CCN(Cc1ccccc1)c1ccccn1 [Tripelennamine HCl] | 14
8 | CC1CNc2c(cccc2S(=O)(=O)N[C@@H](CCCNC(=N)N)C(=O)N2CC[C@@H](C)C[C@@H]2C(=O)O)C1 (stereo partly specified) [Argatroban Monohydrate] | 27.7
9 | CC1CNc2c(cccc2S(=O)(=O)N[C@@H](CCCNC(=N)N)C(=O)N2CC[C@@H](C)C[C@@H]2C(=O)O)C1 (stereo partly specified) [Argatroban] | 15.4
10 | CO[C@H]1C[C@@H]2CC[C@@H](C)[C@@](O)(O2)C(=O)C(=O)N2CCCC[C@H]2C(=O)O[C@H]([C@H](C)C[C@@H]2CC[C@@H](OCCO)[C@H](OC)C2)CC(=O)[C@H](C)/C=C(\C)[C@@H](O)[C@@H](OC)C(=O)[C@H](C)C[C@H](C)/C=C/C=C/C=C/1C [Everolimus (RAD001)] | -40.7
11 | CC(=O)O[C@@]12CO[C@@H]1C[C@H](O)[C@@]1(C)C(=O)[C@H](O)C3=C(C)[C@@H](OC(=O)[C@H](O)[C@@H](NC(=O)OC(C)(C)C)c4ccccc4)C[C@@](O)([C@@H](OC(=O)c4ccccc4)[C@H]21)C3(C)C [Docetaxel] | 70.2
12 | CC(=O)O[C@@]12CO[C@@H]1C[C@H](O)[C@@]1(C)C(=O)[C@H](O)C3=C(C)[C@@H](OC(=O)[C@H](O)[C@@H](NC(=O)OC(C)(C)C)c4ccccc4)C[C@@](O)([C@@H](OC(=O)c4ccccc4)[C@H]21)C3(C)C [Docetaxel Trihydrate] | 82.6
13 | Clc1ccc(CSC(Cn2ccnc2)c2ccc(Cl)cc2Cl)cc1 (stereo unspecified) [Sulconazole Nitrate] | 52.9
14 | Nc1ncnc2c1ncn2[C@@H]1O[C@H](CO)[C@@H](O)[C@H]1O [Adenosine] | -2.73
15 | CC(=O)Oc1ccc(C(=C2CCCCC2)c2ccc(OC(C)=O)cc2)cc1 [Cyclofenil] | 0.151
16 | CC(C)c1cc(-c2n[nH]c(=O)n2-c2ccc3c(ccn3C)c2)c(O)cc1O [Ganetespib (STA-9090)] | > 100
17 | CC(=O)O[C@]1(C(C)=O)CC[C@H]2[C@@H]3C=C(Cl)C4=CC(=O)[C@@H]5C[C@@H]5[C@]4(C)[C@H]3CC[C@@]21C [Cyproterone Acetate] | 9.78
18 | CCCSc1nc(N[C@@H]2C[C@H]2c2ccc(F)c(F)c2)c2nnn([C@@H]3C[C@H](OCCO)[C@@H](O)[C@H]3O)c2n1 [Ticagrelor] | -11.1
19 | O=C(O)COCCN1CCN(C(c2ccccc2)c2ccc(Cl)cc2)CC1 (stereo unspecified) [Cetirizine DiHCl] | -6.34
20 | N[C@@H]1CONC1=O [D-Cycloserine] | 46
21 | N[C@@H](Cc1c[nH]c2ccc(O)cc12)C(=O)O [5-hydroxytryptophan (5-HTP)] | 16.7

Row | SMILES | inhibition of TGF-beta1-induced alpha-SMA expression [%]
22 | CC#CC(=O)N1CCC[C@H]1c1nc(-c2ccc(C(=O)Nc3ccccn3)cc2)c2c(N)nccn12 [Acalabrutinib (ACP-196)] | 75.2
23 | CN1C[C@@H]2C[C@H]1CN2c1cc2c(cc1F)c(=O)c(C(=O)O)cn2C1CC1 [Danofloxacin Mesylate] | 17.8
24 | NC(=O)c1nc(F)cnc1O [Favipiravir (T-705)] | 36.2
25 | N=C(N)Nc1ccc(C(=O)Oc2ccc3cc(C(=N)N)ccc3c2)cc1 [Nafamostat Mesylate] | 17.9
26 | COc1cc2nc(N(C)CCCNC(=O)C3CCCO3)nc(N)c2cc1OC (stereo unspecified) [Alfuzosin HCl] | 13.3
27 | CCCCc1nc2cc(/C=C/C(=O)NO)ccc2n1CCN(CC)CC [Pracinostat (SB939)] | > 100
28 | CCCCCOc1ccc(-c2cc(-c3ccc(C(=O)N[C@H]4C[C@@H](O)[C@@H](O)NC(=O)[C@@H]5[C@@H](O)[C@@H](C)CN5C(=O)[C@H]([C@H](O)CC(N)=O)NC(=O)[C@H]([C@H](O)[C@@H](O)c5ccc(O)c(OS(=O)(=O)O)c5)NC(=O)[C@@H]5C[C@@H](O)CN5C(=O)[C@H]([C@@H](C)O)NC4=O)cc3)no2)cc1 [Micafungin Sodium] | -1.91
29 | CC(=O)Oc1ccccc1C(=O)O [Aspirin] | 21.6
30 | CNS(=O)(=O)CCc1ccc2[nH]cc(C3CCN(C)CC3)c2c1 [Naratriptan HCl] | 16
31 | O=C(Nc1nc2cccc(-c3ccc(CN4CCS(=O)(=O)CC4)cc3)n2n1)C1CC1 [Filgotinib (GLPG0634)] | -11.3
32 | N=C(N)NS(=O)(=O)c1ccc(N)cc1 [Sulfaguanidine] | -0.812
33 | C[C@]12CC[C@H](O)CC1=CC[C@@H]1[C@@H]2CC[C@]2(C)C(n3cnc4ccccc43)=CC[C@@H]12 [Galeterone] | -7.02
34 | CNC(=O)CN(CCN(CCN(CC(=O)[O-])CC(=O)NC)CC(=O)[O-])CC(=O)[O-].O.[Gd+3] [Gadodiamide Hydrate] | 5.91
35 | CC1=C(/C=C/C(C)=C/C=C/C(C)=C/C(=O)O)C(C)(C)CCC1 [Tretinoin] | -19.4
36 | CCc1c(C)[nH]c2c1C(=O)C(CN1CCOCC1)CC2 (stereo unspecified) [Molindone hydrochloride] | 7.55
37 | C#Cc1cccc(Nc2ncnc3cc4c(cc23)OCCOCCOCCO4)c1 [Icotinib] | -21
38 | C=CC(=O)Nc1cc(Nc2nccc(-c3cn(C)c4ccccc34)n2)c(OC)cc1N(C)CCN(C)C [Osimertinib (AZD9291)] | > 100
39 | N[C@@H](CCC(=O)N[C@@H](CS)C(=O)NCC(=O)O)C(=O)O [Glutathione] | 2.68
40 | CC1=C(C(=O)O)N2C(=O)[C@@H](NC(=O)[C@H](N)C3=CCC=CC3)[C@H]2SC1 [Cefradine] | 6.72
41 | CC1=C(C(=O)O)N2C(=O)[C@@H](NC(=O)[C@H](N)C3=CCC=CC3)[C@H]2SC1 [Cephradine monohydrate] | 40.6

Two entries from above, with each value named:
CNC(=O)CN(CCN(CCN(CC(=O)[O-])CC(=O)NC)CC(=O)[O-])CC(=O)[O-].O.[Gd+3] [Gadodiamide Hydrate]
  inhibition of TGF-beta1-induced alpha-SMA expression [%]: 5.91
CC1=C(/C=C/C(C)=C/C=C/C(C)=C/C(=O)O)C(C)(C)CCC1 [Tretinoin]
  inhibition of TGF-beta1-induced alpha-SMA expression [%]: -19.4
